Earlier results as cited in US9920295B2, “Bioreactor for isolation of rare cells and methods of use” (The Trustees of the University of Pennsylvania, priority 2012, dated 2018).
Some entries share one result that the patent states for a list of compounds. At least one structure is not confirmed: it was looked up by name or label, or the drawing left a doubt.

Tested on: CD34+ cells
Settings: data from Boitano et al. (2010); cited from earlier work

In the case of `CC(C)n1cnc2c(NCCc3ccc(O)cc3)nc(-c3csc4ccccc34)nc21` [SR1], the “concentration showing toxic effect” value is listed as no less than 500 nM.
